# Some of the results follow.
# Legend:
# Experiment in all cases: glycan array binding signal (z-score within array); higher = stronger binding
# Conditions in all cases: glycan notation: IUPAC condensed, linker removed
# [1] = target: Fuc(a1-2)[Gal(a1-3)]Gal(b1-3)GlcNAc(b1-6)GalNAc
# Outline: (§1)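 The binding signal is a Z-score computed within each array. Data were drawn from 3228 arrays in the Consortium for Functional Glycomics database, restricted to those with a known protein sequence. Scores were averaged over arrays of the same protein sequence at different concentrations or buffers, and over linkers, and negative values can be taken as non-binding.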
# [2] = target: Fuc(a1-2)[Gal(a1-3)]Gal(b1-4)Glc
# Outline: as §1
# [3] = target: Fuc(a1-2)[Gal(a1-3)]Gal(b1-4)GlcNAc
# Outline: as §1
# [4] = target: Fuc(a1-2)[Gal(a1-3)]Gal(b1-4)GlcNAc(b1-2)Man
# Outline: as §1
# [5] = target: Fuc(a1-2)[Gal(a1-3)]Gal(b1-4)GlcNAc(b1-2)Man(a1-3)[Fuc(a1-2)[Gal(a1-3)]Gal(b1-4)GlcNAc(b1-2)Man(a1-6)]Man(b1-4)GlcNAc(b1-4)GlcNAc
# Outline: as §1
# [6] = target: Fuc(a1-2)[Gal(a1-3)]Gal(b1-4)GlcNAc(b1-2)Man(a1-3)[Fuc(a1-2)[Gal(a1-3)]Gal(b1-4)GlcNAc(b1-2)Man(a1-6)]Man(b1-4)GlcNAc(b1-4)[Fuc(a1-6)]GlcNAc
# Outline: as §1
# [7] = target: Fuc(a1-2)[Gal(a1-3)]Gal(b1-4)GlcNAc(b1-3)GalNAc
# Outline: as §1
# [8] = target: Fuc(a1-2)[Gal(a1-3)]Gal(b1-4)GlcNAc(b1-3)[Fuc(a1-2)[Gal(a1-3)]Gal(b1-4)GlcNAc(b1-6)]GalNAc
# Outline: as §1
# [9] = target: Fuc(a1-2)[Gal(a1-3)]Gal(b1-4)GlcNAc(b1-6)GalNAc
# Outline: as §1
# [10] = target: Fuc(a1-2)[Gal(a1-3)]Gal(b1-4)[Fuc(a1-3)]Glc
# Outline: as §1
# [11] = target: Fuc(a1-2)[Gal(a1-3)]Gal(b1-4)[Fuc(a1-3)]GlcNAc
# Outline: as §1
# [12] = target: Fuc(a1-2)[Gal(a1-3)]Gal(b1-4)[Fuc(a1-3)]GlcNAc(b1-3)GalNAc
# Outline: as §1
# [13] = target: Fuc(a1-2)[Gal(a1-4)]Gal(b1-4)GlcNAc
# Outline: as §1
# [14] = target: Fuc(a1-2)[GalNAc(a1-3)]Gal
# Outline: as §1
# [15] = target: Fuc(a1-2)[GalNAc(a1-3)]Gal(b1-3)GalNAc(a1-3)[Fuc(a1-2)]Gal(b1-4)GlcNAc
# Outline: as §1
# [16] = target: Fuc(a1-2)[GalNAc(a1-3)]Gal(b1-3)GalNAc(b1-3)Gal(a1-4)Gal(b1-4)Glc
# Outline: as §1
# [17] = target: Fuc(a1-2)[GalNAc(a1-3)]Gal(b1-3)GlcNAc
# Outline: as §1
# [18] = target: Fuc(a1-2)[GalNAc(a1-3)]Gal(b1-3)GlcNAc(b1-2)Man(a1-3)[Fuc(a1-2)[GalNAc(a1-3)]Gal(b1-3)GlcNAc(b1-2)Man(a1-6)]Man(b1-4)GlcNAc(b1-4)GlcNAc
# Outline: as §1
# [19] = target: Fuc(a1-2)[GalNAc(a1-3)]Gal(b1-3)GlcNAc(b1-2)Man(a1-3)[Fuc(a1-2)[GalNAc(a1-3)]Gal(b1-3)GlcNAc(b1-2)Man(a1-6)]Man(b1-4)GlcNAc(b1-4)[Fuc(a1-6)]GlcNAc
# Outline: as §1
# [20] = target: Fuc(a1-2)[GalNAc(a1-3)]Gal(b1-3)GlcNAc(b1-3)GalNAc
# Outline: as §1
# [21] = target: Fuc(a1-2)[GalNAc(a1-3)]Gal(b1-3)GlcNAc(b1-6)GalNAc
# Outline: as §1
# [22] = target: Fuc(a1-2)[GalNAc(a1-3)]Gal(b1-4)Glc
# Outline: as §1
# [23] = target: Fuc(a1-2)[GalNAc(a1-3)]Gal(b1-4)GlcNAc
# Outline: as §1
# [24] = target: Fuc(a1-2)[GalNAc(a1-3)]Gal(b1-4)GlcNAc(b1-2)Man
# Outline: as §1
# [25] = target: Fuc(a1-2)[GalNAc(a1-3)]Gal(b1-4)GlcNAc(b1-2)Man(a1-3)[Fuc(a1-2)[GalNAc(a1-3)]Gal(b1-4)GlcNAc(b1-2)Man(a1-6)]Man(b1-4)GlcNAc(b1-4)GlcNAc
# Outline: as §1
# [26] = target: Fuc(a1-2)[GalNAc(a1-3)]Gal(b1-4)GlcNAc(b1-2)Man(a1-3)[Fuc(a1-2)[GalNAc(a1-3)]Gal(b1-4)GlcNAc(b1-2)Man(a1-6)]Man(b1-4)GlcNAc(b1-4)[Fuc(a1-6)]GlcNAc
# Outline: as §1
# [27] = target: Fuc(a1-2)[GalNAc(a1-3)]Gal(b1-4)GlcNAc(b1-3)Gal(b1-4)GlcNAc
# Outline: as §1
# [28] = target: Fuc(a1-2)[GalNAc(a1-3)]Gal(b1-4)GlcNAc(b1-3)Gal(b1-4)GlcNAc(b1-3)Gal(b1-4)GlcNAc
# Outline: as §1
# [29] = target: Fuc(a1-2)[GalNAc(a1-3)]Gal(b1-4)GlcNAc(b1-3)GalNAc
# Outline: as §1
# [30] = target: Fuc(a1-2)[GalNAc(a1-3)]Gal(b1-4)GlcNAc(b1-3)[Fuc(a1-2)[GalNAc(a1-3)]Gal(b1-4)GlcNAc(b1-6)]GalNAc
# Outline: as §1
binder,measurement,setting,value
"GST-Gap1 (Streptococcus parasanguinis), A1C3L5 (protein) MFYFVPSWYNGQRQWYYDTPWWFRVKNRMTFDDSVNQVKMFLQGQEEIGLMILNYQPQLRYFLHKQNIFGIYYWSFFDDIQNITRSYTKIIHLKDLNWPEGCEFLYSPFAVVVRLKGEIFAIVNYAEDGNLHSVSFQKNGKVTKDYIFDDRGFLSSILYYDIDERPLYQDYLNINGVWQVREFLKKENDPTPILMINDFSDQTFSKKYYNGWEELIKERLAIFQNNHVENEDVFVLASDTQHNQLVSSIFKEHRKIYSFFGNRFNLENLGQDRISINDATFLVVDTEKNEELLRKTCENLVFKSIPIVRLSPFDSRLRLGHSQTVKEQIIYFHIDNIELDELYSVIAIILELMTLHLDIELRIVTFRQDFQLDLLKTWIIDFIKTNHFEDLLFKQISEGENEIEDEGEIELSRIAMECFTNENQIIKCLDTARLVIDLGIEPDLYTQIASISAGIPQINRVSSDYVIHQKNGLVISDISKLSSAIEFYFDGLFNWNEALIYAVRKMSDYTSGKILKQWKGMLKKK",glycan array binding signal (z-score),[1],-1.19
same,glycan array binding signal (z-score),[2],-0.284
same,glycan array binding signal (z-score),[3],-0.454
same,glycan array binding signal (z-score),[4],-0.05
same,glycan array binding signal (z-score),[5],-0.478
same,glycan array binding signal (z-score),[6],-0.111
same,glycan array binding signal (z-score),[7],-0.867
same,glycan array binding signal (z-score),[8],1.04
same,glycan array binding signal (z-score),[9],-0.203
same,glycan array binding signal (z-score),[10],-0.065
same,glycan array binding signal (z-score),[11],0.117
same,glycan array binding signal (z-score),[12],-0.784
same,glycan array binding signal (z-score),[13],0.497
same,glycan array binding signal (z-score),[14],-0.403
same,glycan array binding signal (z-score),[15],-0.423
same,glycan array binding signal (z-score),[16],0.018
same,glycan array binding signal (z-score),[17],0.637
same,glycan array binding signal (z-score),[18],-0.372
same,glycan array binding signal (z-score),[19],-0.842
same,glycan array binding signal (z-score),[20],-0.497
same,glycan array binding signal (z-score),[21],-0.599
same,glycan array binding signal (z-score),[22],-0.272
same,glycan array binding signal (z-score),[23],-0.587
same,glycan array binding signal (z-score),[24],-0.694
same,glycan array binding signal (z-score),[25],-0.123
same,glycan array binding signal (z-score),[26],1.1
same,glycan array binding signal (z-score),[27],-0.25
same,glycan array binding signal (z-score),[28],-0.457
same,glycan array binding signal (z-score),[29],0.385
same,glycan array binding signal (z-score),[30],-0.282

# Two records picked at random from those above:
binder,measurement,setting,value
"GST-Gap1 (Streptococcus parasanguinis), A1C3L5 (protein) MFYFVPSWYNGQRQWYYDTPWWFRVKNRMTFDDSVNQVKMFLQGQEEIGLMILNYQPQLRYFLHKQNIFGIYYWSFFDDIQNITRSYTKIIHLKDLNWPEGCEFLYSPFAVVVRLKGEIFAIVNYAEDGNLHSVSFQKNGKVTKDYIFDDRGFLSSILYYDIDERPLYQDYLNINGVWQVREFLKKENDPTPILMINDFSDQTFSKKYYNGWEELIKERLAIFQNNHVENEDVFVLASDTQHNQLVSSIFKEHRKIYSFFGNRFNLENLGQDRISINDATFLVVDTEKNEELLRKTCENLVFKSIPIVRLSPFDSRLRLGHSQTVKEQIIYFHIDNIELDELYSVIAIILELMTLHLDIELRIVTFRQDFQLDLLKTWIIDFIKTNHFEDLLFKQISEGENEIEDEGEIELSRIAMECFTNENQIIKCLDTARLVIDLGIEPDLYTQIASISAGIPQINRVSSDYVIHQKNGLVISDISKLSSAIEFYFDGLFNWNEALIYAVRKMSDYTSGKILKQWKGMLKKK",glycan array binding signal (z-score),[29],0.385
same,glycan array binding signal (z-score),[13],0.497
